In PubChem BioAssay AID216 (DTP/NCI, 2004) one finds T/C and survivor count data, which are given here for four compounds.

The list is a part of this screen's results and no random one: it covers a few groups of compounds. Other doses and runs of a compound may be missing. T/C is the treated group as % of the vehicle group. Some doses have a count of surviving animals in place of a T/C: the source files T/C as zero there, which appears to mark a toxic dose or a test without result, not a measured value. Some survivor counts are full or nearly so, which does not show that the dose was tolerated: survival well below the control is almost never listed, so the zero probably covers shortened survival too. Survivors were counted at the toxicity check, usually on the fifth day, unless a day is given; later deaths do not show. Schedules are NCI's codes, taken here to give the interval after Q, in days (D) or hours (H), and the number of doses after X. Some schedule codes hold Z or #, which are not explained here. Some entries hold several experiments; the values are given in rising order. Where survival is the endpoint, this PubChem deposit counts one and a half times the control or more as active, and values a quarter to a half above the control carry no call in these data; other NCI protocols may use other cut-offs. Some T/C values are followed by the survivors on the day toxicity was checked, most often the fifth; where neither a count nor a note follows, no animal had died by that day.

The test system of the experiment is BDF1 mice, P288 leukemia ip, survival T/C. Description: NCI In Vivo Anticancer Drug Screen. Data for tumor model P288 Lymphocytic Leukemia (intraperitoneal) in B6D2F1 (BDF1) mice. Conditions: T/C endpoint: survival time, mean or median, higher T/C = longer survival. As for the experimental part:
The antitumor activity of compounds was measured in mice bearing transplantable tumors. Survival or tumor size were measured and the results are expressed as the measurement made in the treated group (T) divided by the measurement made in the vehicle treated control group (C). The tumor model used in this assay is P288 Lymphocytic Leukemia (intraperitoneal) in B6D2F1 (BDF1) mice

Setting [1] is: dose: 1.0 mg/kg/injection, schedule: Q01DX Z (ip), vehicle: carboxymethylcellulose (CMC).
The mark [2] stands for this setting: dose: 2.0 mg/kg/injection, schedule: Q01DX Z (ip), vehicle: carboxymethylcellulose (CMC).

In the case of `Cc1[nH]c(=O)[nH]c(=O)c1N(CCCl)CCCl`, the T/C runs as follows: (dose: 0.06 mg/kg/injection, schedule: Q01DX Z (ip), vehicle: carboxymethylcellulose (CMC)) 104 % of control; (dose: 0.12 mg/kg/injection, schedule: Q01DX Z (ip), vehicle: carboxymethylcellulose (CMC)) 106 % of control; (dose: 0.25 mg/kg/injection, schedule: Q01DX Z (ip), vehicle: carboxymethylcellulose (CMC)) 97 [5 of 6 alive] and 106 % of control; (dose: 0.5 mg/kg/injection, schedule: Q01DX010 (ip), vehicle: saline) 112 % of control; (dose: 0.5 mg/kg/injection, schedule: Q01DX Z (ip), vehicle: carboxymethylcellulose (CMC)) 92 [4 of 6 alive] and 128 % of control; (dose: 1.0 mg/kg/injection, schedule: Q01DX010 (ip), vehicle: saline) 218 % of control. In addition, the T/C was 121 % of control under setting [1]; 156 % of control (dose: 2.0 mg/kg/injection, schedule: Q01DX010 (ip), vehicle: saline); 144 % of control under setting [2]; 100 % of control (dose: 4.0 mg/kg/injection, schedule: Q01DX010 (ip), vehicle: saline); 172 % of control (dose: 4.0 mg/kg/injection, schedule: Q01DX Z (ip), vehicle: carboxymethylcellulose (CMC)). Further, the survivor count is, setting by setting: under setting [1], 3 of 6; under setting [2], 2 of 6.
In the case of `NC1CCCCC1.O=P(O)(N(CCCl)CCCl)N1CC1`, the survivor count (dose: 1.25 mg/kg/injection, schedule: Q01DX010 (ip), vehicle: saline) is 6 of 6. Also, the T/C (dose: 2.5 mg/kg/injection, schedule: Q01DX010 (ip), vehicle: saline) was 95 and 110 % of control; the T/C (dose: 5.0 mg/kg/injection, schedule: Q01DX010 (ip), vehicle: saline) is 121 and 125 % of control; the T/C (dose: 10.0 mg/kg/injection, schedule: Q01DX010 (ip), vehicle: saline) is 130 and 152 % of control; the T/C (dose: 20.0 mg/kg/injection, schedule: Q01DX010 (ip), vehicle: saline) was 184 % of control.
Regarding `CC[C@H](C)[C@@H]1NC(=O)/C(=C(\C)O)C1=O`, the T/C is 89 % of control (dose: 3.1 mg/kg/injection, schedule: Q01DX Z (ip), vehicle: water); 103 % of control (dose: 6.25 mg/kg/injection, schedule: Q01DX Z (ip), vehicle: water); 90 % of control (dose: 12.5 mg/kg/injection, schedule: Q01DX Z (ip), vehicle: water); 106 % of control (dose: 25.0 mg/kg/injection, schedule: Q01DX Z (ip), vehicle: water); 122 % of control [5 of 6 alive] (dose: 50.0 mg/kg/injection, schedule: Q01DX Z (ip), vehicle: water). Further, the survivor count is, setting by setting: (dose: 100.0 mg/kg/injection, schedule: Q01DX Z (ip), vehicle: water) 3 of 6; (dose: 200.0 mg/kg/injection, schedule: Q01DX Z (ip), vehicle: water) 0 of 6.
For the compound `CN(N=O)C(=N)N[N+](=O)[O-]`, the T/C (dose: 1.18 mg/kg/injection, schedule: Q01DX Z (ip), vehicle: carboxymethylcellulose (CMC)) was 86 % of control; the T/C (dose: 4.7 mg/kg/injection, schedule: Q01DX Z (ip), vehicle: carboxymethylcellulose (CMC)) was 98 % of control; the T/C (dose: 8.0 mg/kg/injection, schedule: Q01DX010 (ip), vehicle: saline) is 125 and 128 % of control; the T/C (dose: 9.4 mg/kg/injection, schedule: Q01DX Z (ip), vehicle: carboxymethylcellulose (CMC)) is 91 and 117 % of control; the T/C (dose: 16.0 mg/kg/injection, schedule: Q01DX010 (ip), vehicle: saline) was 125 and 150 % of control; the T/C (dose: 18.75 mg/kg/injection, schedule: Q01DX Z (ip), vehicle: carboxymethylcellulose (CMC)) is 86 % of control. The T/C runs as follows: (dose: 32.0 mg/kg/injection, schedule: Q01DX010 (ip), vehicle: saline) 106 and 128 % of control; (dose: 37.5 mg/kg/injection, schedule: Q01DX Z (ip), vehicle: carboxymethylcellulose (CMC)) 96 % of control. Also, the survivor count is 6 of 6 (dose: 2.35 mg/kg/injection, schedule: Q01DX Z (ip), vehicle: carboxymethylcellulose (CMC)); 0 of 6 and 3 of 6 (dose: 64.0 mg/kg/injection, schedule: Q01DX010 (ip), vehicle: saline); 5 of 6 (dose: 75.0 mg/kg/injection, schedule: Q01DX Z (ip), vehicle: carboxymethylcellulose (CMC)).
